# According to PubChem BioAssay AID485298 (National Center for Advancing Translational Sciences (NCATS), 2010):
# About 740 (0.23%) of roughly 320,000 compounds were called active. The inconclusive results got no clear call from the source; some entries with a clear call stand among them for comparison. Calls follow the shape of the dose curve; as a rule, active = well fitted activation curve with a large enough effect; inconclusive = small, poorly fitted or top-dose-only effect; inactive = no such curve, though single readings can be large or run the other way. Where the call is inconclusive, the potency comes from a doubtful curve fit. Some structures have more than one record in an assay (separate samples or runs), and their calls can disagree.
# Test: qHTS Assay for Small Molecule Inhibitors of Mitochondrial Division or Activators of Mitochondrial Fusion; also: nearly all actives have a fitted effect of over 45% in size;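 as to growth rescue (activation): temperature-sensitive fusion mutants such as fzo1-1 at 37 °C on non-fermentable ethanol glycerol medium; % of control where 0% means no effect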
# Details: S. cerevisiae fusion-defective mutant growth rescue, CellTiterGlo 48 h; growth rescue (activation): at 46.1 µM (top of the series) unless noted
# Method in brief: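 Compounds are tested for their ability to restore growth of mitochondrial fusion-defective yeast strains at non-permissive 37C in YPEG medium over 48 hours. Viability is quantified by luciferase luminescence.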
# Potency is read from the fitted curve at half-maximal effect.
SMILES,Potency,growth rescue (activation)
O=C(c1cn(Cc2ccccc2)nc1-c1ccc(Cl)cc1)N1CCN(c2ccccn2)CC1,"inconclusive: 22.4 µM [activator, single point]",
O=C(Nc1cccc(Cl)c1)c1csc(-c2ccccc2)n1,"inconclusive: 35.5 µM [activator, single point]",
Cc1ccc(C)c(S(=O)(=O)c2c[nH]c(=S)[nH]c2=O)c1,"inconclusive: 10 µM [activator, partial curve]",
CCOc1ccc(S(=O)(=O)N2CCCCC2)cc1NC(=O)C1=COCCO1,"inconclusive: 35.5 µM [activator, single point]",
CCOC(=O)Nc1ccc(NCc2ccc(F)cc2)nc1N,inactive,
CCn1c(C)c(C(=O)O)c2cc(OC)c3ccccc3c21,,inactive: -12.1%
NC(=S)NN=C1c2ccccc2-c2ccccc21,,inactive: 30.4%
CC(C)(C)C(=O)NC(=S)NNC(=O)c1ccncc1,,inactive: -1.21%
CCc1ccccc1N(CC)C(=O)CCc1nc(-c2ccc(C)cc2)no1,"inconclusive: 2.82 µM [activator, full curve]",
CC(=O)NC(c1cc(Cl)c2cccnc2c1O)C1CC1 (stereo not given),"inconclusive: 3.16 µM [activator, single point]",
Cc1ccc2nc(Nc3ccccc3)c(/C=N/O)c(=O)n2c1,"inconclusive: 15.8 µM [activator, single point]",
NC(=O)c1ccsc1NC(=O)c1ccc2c(c1)CCCC2,"inconclusive: 1.12 µM [activator, full curve, poor fit]",
COc1ccc(C(c2c(C)[nH]n(-c3ccccc3)c2=O)c2c(C)[nH]n(-c3ccccc3)c2=O)cc1OC,,inactive: 1.7%
Cc1nn(-c2ccccc2)c(C)c1/C=N/n1c(-c2ccccc2Br)n[nH]c1=S,"inconclusive: 17.8 µM [activator, single point]",
S=C(c1ccc(-c2ccc(Cl)cc2)o1)N1CCCCC1,,inactive: 9.44%
Cc1ccc(NC(=O)O/N=C/c2c(C)nn(C(C)(C)C)c2C)cc1Cl,,inactive: -0.666%
COc1ccc(C2CC(O)(c3ccccc3)Oc3cc(OC)ccc32)cc1 (stereo not given),"inconclusive: 20 µM [activator, single point]",
Cc1ccc(C)c(Nc2ncccc2C(=O)NCc2cccs2)c1,"inconclusive: 14.1 µM [activator, partial curve]",
CCOC(=O)c1sc(Nc2nc3ccc(OC)cc3s2)cc1C,"inconclusive: 11.2 µM [activator, partial curve]",
OCCN(CCO)c1ccc2ccccc2c1,,inactive: -5.22%
Cc1c(O)c2c(=O)n(-c3ccccc3)c(-c3ccccc3)cc2oc1=O,active: 10 µM,
Cc1ccc(SC(=O)c2c([N+](=O)[O-])c(C)nn2C)cc1,,inactive: -3.28%
O=C(CN1CCN(S(=O)(=O)c2ccccc2)CC1)Nc1ccc([N+](=O)[O-])cc1,,inactive: -0.425%
O=C(CCSc1ccc(Cl)c(Cl)c1)NC12CC3CC(CC(C3)C1)C2,,inactive: 0.666%
N#Cc1cc(O)c(-n2nnc3ccccc32)cc1C#N,,inactive: 8.83%

SMILES,Potency,growth rescue (activation)
CN(CC(=O)Nc1c(F)cccc1F)Cc1cccs1,"inconclusive: 4.47 µM [activator, single point]",
CCOC(=O)c1ccccc1NC(=O)CSc1ccc(-c2cccnc2)nn1,"inconclusive: 5.01 µM [activator, partial curve]",
O=C1/C(=C/c2cccnc2)CCc2c1[nH]c1ccccc21,,inactive: 4.37%
COc1cccc(C(=O)Nc2ccc(Cl)c(C(F)(F)F)c2)c1,"inconclusive: 35.5 µM [activator, single point]",
Cn1cc([N+](=O)[O-])c(C(=O)Nc2sc3c(c2C#N)CCC3)n1,active: 11.2 µM,
C[C@@H](C(=O)N1CCN(C(=O)OC(C)(C)C)CC1)n1cc(-c2cn([C@@H](C)C(=O)N3CCN(C(=O)OC(C)(C)C)CC3)nn2)nn1,,inactive: 10.8%
CC(C)C(=O)Nc1ccc([N+](=O)[O-])c(C(F)(F)F)c1,active: 14.6 µM,
C=CCn1c(CCCOc2ccc(Cl)cc2Cl)n[nH]c1=S,"inconclusive: 31.6 µM [activator, single point]",
O=C1COc2ccc(S(=O)(=O)N3CCN(c4cccc(C(F)(F)F)c4)CC3)cc2N1,,inactive: 2.48%
S=C(NCc1ccccc1)NCc1ccccn1,,inactive: -5.72%
CCn1nc(NC(=O)C(C)C)c2cc3ccc(C)cc3nc21,"inconclusive: 7.08 µM [activator, partial curve]",
Cc1nc(NCc2ccccn2)c2c3c(sc2n1)CCCC3,active: 20 µM,
CC(C)n1c(O)c(N=NC(=O)C2COc3ccccc3O2)c2ccccc21 (stereo not given),"inconclusive: 12.6 µM [activator, partial curve]",
Cc1cccc(C)c1NC(=S)N(CCc1ccncc1)C(C)C,"inconclusive: 35.5 µM [activator, single point]",
COc1ccc(C2Nc3ccccc3C(=O)N2c2ccc(C)cc2)cc1Cn1cc([N+](=O)[O-])cn1 (stereo not given),,inactive: 4.6%
O=C(/C=C/c1ccc2c(c1)OCO2)c1ccccn1,"inconclusive: 35.5 µM [activator, single point]",
CCSc1nnc(NC(=O)NC(C)(C(F)(F)F)C(F)(F)F)s1,"inconclusive: 35.5 µM [activator, single point]",
Cc1cnc(=O)[nH]c1SCc1ccc(C(F)(F)F)cc1,"inconclusive: 20 µM [activator, partial curve, poor fit]",
CCOC(=O)c1c(NC(=O)COC(=O)Cn2cnc3ccccc32)sc2c1CCC(C)C2 (stereo not given),"inconclusive: 17.8 µM [activator, single point]",
CC(C)=NOC(=O)c1ccc(-c2ccccc2)cc1,"inconclusive: 12.6 µM [activator, partial curve]",
O=C(c1ccc(COc2ccc(Cl)cc2)o1)N1CCN(Cc2ccc3c(c2)OCO3)CC1,"inconclusive: 20 µM [activator, single point]",
Cc1ccc(SCc2cc(=O)c3c(=O)n(-c4ccccc4)[nH]c3[nH]2)cc1,,inactive: -2.1%
COc1ccc(S(=O)(=O)N2CCC(C(N)=O)CC2)c2ccccc12,,inactive: 4.92%
COc1ccc(C2SCC(=O)N2CC23CC4CC(CC(C4)C2)C3)cc1 (stereo not given),"inconclusive: 14.1 µM [activator, partial curve]",
COc1cc(OC)c(NC(=O)CN(C)S(=O)(=O)c2ccc(-c3ccc(=O)[nH]n3)s2)cc1Cl,"inconclusive: 2.82 µM [activator, partial curve]",

SMILES,Potency,growth rescue (activation)
Cc1cc2oc(C(=O)NCc3ccccc3)cc(=O)c2cc1C,"inconclusive: 6.31 µM [activator, single point]",
Cc1cc(C(=O)COc2ccc(F)cc2Br)c(C)n1C1CC1,"inconclusive: 11.2 µM [activator, partial curve]",
O=C(NNC1=Nc2ccccc2SC1)c1ccccc1F,,inactive: 5.83%
Cn1c(-c2ccc3nc(N)sc3c2)nc2cc(N)ccc21,,inactive: -0.0166%
CCCN(CCC)C(=O)c1oc2ccccc2c1NC(=O)Cc1cccc(OC)c1,,inactive: 19.6%
Cc1ccc2nc(-c3ccc(NC(=O)C4CCCO4)cc3)[nH]c2c1 (stereo not given),,inactive: 1.76%
CCC(CC)C(=O)Nc1cc(C(=O)OC)ccc1C(=O)OC,"inconclusive: 14.1 µM [activator, partial curve]",
O=C(NNc1c2ccccc2nc2ccccc12)c1ccc(O)cc1O,,inactive: -3.29%
Cc1c(C(=O)OC2CCCCC2)sc2nc[nH]c(=O)c12,"inconclusive: 11.2 µM [activator, partial curve]",
CC(C)(C)NC(=O)CSc1nc(Cc2ccccc2)nc2ccccc12,,inactive: -5.22%
Cc1ccc(-c2nc3c(c(=O)[nH]c(=O)n3Cc3ccccc3)n2C)o1,"inconclusive: 31.6 µM [activator, single point]",
Cc1cc(Br)ccc1OCCCCN1CCCCC1,"inconclusive: 12.6 µM [activator, partial curve]",
Cc1cccc(C(P(=O)(c2ccccc2)c2ccccc2)P(=O)(c2ccccc2)c2ccccc2)n1,,inactive: -0.339%
COc1ccc(-n2c(Cc3cccn3C)nnc2SCC(=O)Nc2ccc(C)c(Cl)c2)cc1,"inconclusive: 31.6 µM [activator, single point]",
CCC(=O)OCC(=O)[C@@]1(OC(=O)CC)[C@@H](C)C[C@H]2[C@@H]3CCC4=CC(=O)C=C[C@]4(C)[C@@]3(Cl)[C@@H](O)C[C@@]21C,"inconclusive: 17.8 µM [activator, partial curve]",
Cc1ccc(/C=C2\S/C(=N/S(=O)(=O)c3cccs3)NC2=O)cc1,,inactive: 15.3%
O=c1c2ccccc2nc2n1CCc1c-2[nH]c2ccccc12,"inconclusive: 1.64 µM [activator, full curve, poor fit]",
CNc1sc(C(=O)c2ccc(F)cc2)c(N)c1-c1nc2ccccc2s1,,inactive: 6.66%
Cc1ccc(CNc2nc(C)nc3sc4c(c23)CCC4)cc1,,inactive: -2.33%
O=S(=O)(NCCc1csc(-c2cccnc2)n1)c1cccc(F)c1,,inactive: -1.76%
O=C(CCCN1CCC(O)(c2cccc(C(F)(F)F)c2)CC1)c1ccc(F)cc1,active: 23.1 µM,
COc1ccc2c(c1)OC[C@H]1[C@H]2N2C(=O)CN(Cc3ccc(C)cc3)C(=O)[C@@]2(C)[C@H]1c1ccccc1,"inconclusive: 14.1 µM [activator, single point]",
COc1ccc(S(=O)(=O)Nc2ccc(F)cc2)cc1N(C)S(=O)(=O)c1ccc(Cl)cc1,,inactive: 26.2%
COC(=O)CCCC1=CC2=CC(=O)C(C)(OC(=O)c3cccs3)C(=O)C2=CN1c1ccc(OC)cc1 (stereo not given),"inconclusive: 35.5 µM [activator, single point]",
COc1ccc(-c2csc(=Nc3ccccc3)n2CCO)cc1,"inconclusive: 12.6 µM [activator, partial curve]",

# As a short view, part of the list above:
SMILES,Potency,growth rescue (activation)
O=S(=O)(NCCc1csc(-c2cccnc2)n1)c1cccc(F)c1,,inactive: -1.76%
O=C(CCCN1CCC(O)(c2cccc(C(F)(F)F)c2)CC1)c1ccc(F)cc1,active: 23.1 µM,
COc1ccc2c(c1)OC[C@H]1[C@H]2N2C(=O)CN(Cc3ccc(C)cc3)C(=O)[C@@]2(C)[C@H]1c1ccccc1,"inconclusive: 14.1 µM [activator, single point]",
COc1ccc(S(=O)(=O)Nc2ccc(F)cc2)cc1N(C)S(=O)(=O)c1ccc(Cl)cc1,,inactive: 26.2%
COC(=O)CCCC1=CC2=CC(=O)C(C)(OC(=O)c3cccs3)C(=O)C2=CN1c1ccc(OC)cc1 (stereo not given),"inconclusive: 35.5 µM [activator, single point]",
